Experimental data taken from article PMC9525703.

By UniProt entry, the sequences of proteins in these tests, tags left out. Where a name states a change or a piece, a line headed by the entry shows the natural chain unless it says otherwise.
UniProt Q9NVX7: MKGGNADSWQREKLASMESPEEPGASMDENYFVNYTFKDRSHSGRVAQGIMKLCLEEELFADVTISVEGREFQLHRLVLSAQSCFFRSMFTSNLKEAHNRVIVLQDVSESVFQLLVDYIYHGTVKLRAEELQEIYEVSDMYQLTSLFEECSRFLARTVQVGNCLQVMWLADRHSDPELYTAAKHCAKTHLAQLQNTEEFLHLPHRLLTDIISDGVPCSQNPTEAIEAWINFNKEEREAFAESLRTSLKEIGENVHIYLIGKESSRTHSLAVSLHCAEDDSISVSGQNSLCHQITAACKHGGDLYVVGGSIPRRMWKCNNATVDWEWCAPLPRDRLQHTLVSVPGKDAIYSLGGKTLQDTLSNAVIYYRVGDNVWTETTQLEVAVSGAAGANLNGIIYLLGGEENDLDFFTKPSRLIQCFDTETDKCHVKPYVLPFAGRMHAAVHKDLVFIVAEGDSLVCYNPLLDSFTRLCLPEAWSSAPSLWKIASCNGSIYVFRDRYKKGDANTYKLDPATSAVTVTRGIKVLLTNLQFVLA

Assays:
[1] = target: Flag-KBTBD4^P311PP, pcDNA3.1(+) construct (human) (UniProt Q9NVX7); test: affinity purification with mass spectrometry; HEK293T transfected with Flag-KBTBD4 wild type or mutants; 100 nM MLN4924 for 4 h; ANTI-FLAG M2 Affinity Gel, eluted with 3xFLAG peptide; tryptic digest, LC-MS/MS
[2] = target: Flag-KBTBD4^R313PRR, pcDNA3.1(+) construct (human) (UniProt Q9NVX7); test: as above

| binding [1] | binding [2] | Binder |
| --- | --- | --- |
| binds | binds | Genetic Suppressor Element 1 (GSE1) (protein, UniProt Q14687 1-1217) MKGMSHEPKSPSLGMLSTATRTTATVNPLTPSPLNGALVPSGSPATSSALSAQAAPSSSFAAALRKLAKQAEEPRGSSLSSESSPVSSPATNHSSPASTPKRVPMGPIIVPPGGHSVPSTPPVVTIAPTKTVNGVWRSESRQDAGSRSSSGGRERLIVEPPLPQEKAGGPAIPSHLLSTPYPFGLSPSSVVQDSRFPPLNLQRPVHHVVPPSTVTEDYLRSFRPYHTTDDLRMSSLPPLGLDPATAAAYYHPSYLAPHPFPHPAFRMDDSYCLSALRSPFYPIPTPGSLPPLHPSAMHLHLSGVRYPPELSHSSLAALHSERMSGLSAERLQMDEELRREREREREREREREADREREKEREREREKEREQEKEREREKERERELERQREQRAREKELLAAKALEPSFLPVAELHGLRGHATEERGKPSEQLTPTRAEKLKDAGLQAPKPVQHPLHPVPTPHHTVPSLISNHGIFSLPSSSAATALLIQRTNEEEKWLARQRRLRQEKEDRQSQVSEFRQQVLEQHLDMGRPPVPAEAEHRPESTTRPGPNRHEPGGRDPPQHFGGPPPLISPKPQLHAAPTALWNPVSLMDNTLETRRAESHSLHSHPAAFEPSRQAAVPLVKVERVFCPEKAEEGPRKREPAPLDKYQPPPPPPREGGSLEHQPFLPGPGPFLAELEKSTQTILGQQRASLPQAATFGELSGPLKPGSPYRPPVPRAPDPAYIYDEFLQQRRRLVSKLDLEERRRREAQEKGYYYDLDDSYDESDEEEVRAHLRCVAEQPPLKLDTSSEKLEFLQLFGLTTQQQKEELVAQKRRKRRRMLRERSPSPPTIQSKRQTPSPRLALSTRYSPDEMNNSPNFEEKKKFLTIFNLTHISAEKRKDKERLVEMLRAMKQKALSAAVADSLTNSPRDSPAVSLSEPATQQASLDVEKPVGVAASLSDIPKAAEPGKLEQVRPQELSRVQELAPASGEKARLSEAPGGKKSLSMLHYIRGAAPKDIPVPLSHSTNGKSKPWEPFVAEEFAHQFHESVLQSTQKALQKHKGSVAVLSAEQNHKVDTSVHYNIPELQSSSRAPPPQHNGQQEPPTARKGPPTQELDRDSEEEEEEDDEDGEDEEEVPKRKWQGIEAVFEAYQEHIEEQNLERQVLQTQCRRLEARHYSLSLTAEQLSHSVAELRSQKQKMVSERERLQAELDHLRKCLALPAMHWPRGYLKGYPR |
| binds | binds | HMG20B (protein, UniProt Q9P0W2 1-317) MSHGPKQPGAAAAPAGGKAPGQHGGFVVTVKQERGEGPRAGEKGSHEEEPVKKRGWPKGKKRKKILPNGPKAPVTGYVRFLNERREQIRTRHPDLPFPEITKMLGAEWSKLQPTEKQRYLDEAEREKQQYMKELRAYQQSEAYKMCTEKIQEKKIKKEDSSSGLMNTLLNGHKGGDCDGFSTFDVPIFTEEFLDQNKAREAELRRLRKMNVAFEEQNAVLQRHTQSMSSARERLEQELALEERRTLALQQQLQAVRQALTASFASLPVPGTGETPTLGTLDFYMARLHGAIERDPAQHEKLIVRIKEILAQVASEHL |

These are yes or no findings as the source states them, for the method shown. Binding seen in cells or lysates may run through a third protein. A yes stands for co-enrichment or nearness to the bait. Other partners may have been found.
